# Source: PubChem BioAssay AID504834 (National Center for Advancing Translational Sciences (NCATS), 2011)
# Out of some 320,000 compounds screened, about 22,000 (6.9%) were called active. The inconclusive results got no clear call from the source; some entries with a clear call stand among them for comparison. Calls come from the whole dose curve; as a rule, active = well fitted inhibition curve with a large enough effect; inconclusive = small, poorly fitted or top-dose-only effect, or another doubt; inactive = no such curve, though single readings can be large or run the other way. Potencies beside an inconclusive call are fits to weak or partial responses and may not hold up.
# Assay: Primary qHTS for delayed death inhibitors of the malarial parasite plastid, 96 hour incubation
# Conditions: P. falciparum luciferase reporter growth; series mostly up to 28.7 µM; activity change, negative = inhibition: at the top concentration
# Method in brief: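 Erythrocytes infected with luciferase-expressing P. falciparum were dispensed at 2% hematocrit and 0.05% parasitemia (final), then incubated with compounds 96 hours at 37 C in 5% CO2. Luminescence after detection reagent addition reported growth.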
# % is set by controls: 0 for no effect and ±100 for the full control effect; potency is the fitted concentration of half-maximal effect.
Compound,Potency,"activity change, negative = inhibition"
C=CCOc1ccc(CN(C)CC(O)COc2ccc(CCC(C)=O)cc2)cc1 (stereo unspecified),"inconclusive: 11.7 µM [inhibitor, partial curve, poor fit]",–
Cc1ccc(S(=O)(=O)N(C)CC(=O)OCC(=O)c2c(N)n(C)c(=O)n(C)c2=O)cc1,–,inactive: 1.17%
Cc1ccccc1CN1C[C@@H]2C[C@@H](c3cn[nH]c3-c3ccc(F)cc3)N3CCC[C@@]23C1=O,–,inactive: 4.97%
CN1CCN(c2nc(Nc3ccccc3)nc(N)c2[N+](=O)[O-])CC1,"inconclusive: 18.5 µM [inhibitor, single point]",–
COc1ccc(CCNC(=O)c2ccccc2Cl)cc1OC,"inconclusive: 18.5 µM [inhibitor, single point]",–
O=C(C1CCC1)N(CCc1ccccc1)Cc1nc2ccccc2c(=O)[nH]1,–,inactive: 5.4%
CCCOC(=O)C1=C(C)N(C)C(=O)NC1c1cc2c(cc1[N+](=O)[O-])OCO2 (stereo unspecified),"inconclusive: 18.5 µM [inhibitor, single point]",–
COc1ccc(CCNS(=O)(=O)c2ccc(F)cc2)cc1OC,–,inactive: 4.43%
COc1ccc(NC(=O)CSc2nnc(COc3ccccc3)n2Cc2ccco2)cc1OC,–,inactive: 30.7%
Cc1ccc(C2CC(=O)N3CN(Cc4ccco4)CSC3=C2C#N)cc1 (stereo unspecified),"inconclusive: 18.5 µM [inhibitor, single point]",–
COc1ccc(S(=O)(=O)NC2CCSc3ccccc32)cc1OC (stereo unspecified),–,inactive: 0.543%
CC(=O)N1N=C2c3ccccc3CCC2C1c1cccs1 (stereo unspecified),"inconclusive: 0.104 µM [inhibitor, full curve, poor fit]",–
O=C(Cc1ccccc1)Nc1c[nH]c(=O)[nH]c1=O,"inconclusive: 0.0033 µM [inhibitor, full curve, poor fit]",–
O=C(Nc1nc(-c2ccc(S(=O)(=O)N3CCCC3)cc2)cs1)c1cccs1,–,inactive: -5.15%
Clc1cccc(-c2csc(Nc3cccnc3)n2)c1,"inconclusive: 13.1 µM [inhibitor, single point]",–
O=C(Nc1ccc(-c2ccc3nncn3n2)cc1)C1CCCCC1,"inconclusive: 18.5 µM [inhibitor, single point]",–
O=c1[nH]c2ccc(S(=O)(=O)N3CCC(Cc4ccccc4)CC3)cc2o1,–,inactive: -0.787%
COc1ccc(NS(=O)(=O)c2cc(NC(=O)CC(=O)c3ccc([N+](=O)[O-])cc3)ccc2C)cc1,"inconclusive: 2.62 µM [inhibitor, single point]",–
CCC(=O)NC(=S)Nc1ccc(N2CCN(C(=O)c3ccc(Cl)cc3)CC2)cc1,active: 11.7 µM,–
Cc1c(C(=O)Nc2ccccc2)c2cc(O)ccc2n1Cc1ccccc1,–,inactive: 0%
CCC(Sc1nc2n[nH]c(C)c2c(=N)n1-c1cc(Cl)ccc1C)C(=O)N1CCOCC1 (stereo unspecified),"inconclusive: 18.5 µM [inhibitor, single point]",–
C[C@H](NC(=O)C1CCN(S(=O)(=O)c2ccccc2)CC1)C(=O)NCc1ccc(F)cc1,"inconclusive: 18.5 µM [inhibitor, single point]",–
O=C(CN1C(=O)S/C(=C/c2ccccn2)C1=O)N1CCOCC1,"inconclusive: 18.5 µM [inhibitor, single point]",–
Cc1cc(C)nc(-n2nc(C)c(Oc3ccccc3O)c2C)n1,"inconclusive: 18.5 µM [inhibitor, single point]",–

Compound,Potency,"activity change, negative = inhibition"
CCSc1ccc(C(=O)Nc2cccc(C)n2)cc1[N+](=O)[O-],–,inactive: 2.27%
COc1ccc(N2CCN(C(c3cc(OC)ccc3OC)c3nnnn3CC3CCCO3)CC2)cc1 (stereo unspecified),–,inactive: 163%
O=C(CCc1nnc2ccc(NCc3ccco3)nn12)N1CCN(c2ccccc2F)CC1,active: 9.28 µM,–
COc1ccc(C2CC(=O)C3=C(C2)Nc2ccccc2N(C(=O)CCC(=O)O)C3c2ccc(F)cc2)cc1OC (stereo unspecified),"inconclusive: 0.465 µM [inhibitor, full curve, poor fit]",–
CCCn1c(=O)c2sccc2n2c(CCCC(=O)NC3CCN(Cc4ccccc4)CC3)nnc12,"inconclusive: 18.5 µM [inhibitor, single point]",–
O=C(Nc1ccc(S(=O)(=O)Nc2nccs2)cc1)c1nn(-c2ccccc2)ccc1=O,"inconclusive: 7.38 µM [inhibitor, partial curve, poor fit]",–
Cc1cc(C)n(-c2ccc(C(=O)Nc3ccc4c(c3)OCO4)cc2)n1,–,inactive: -15.9%
COc1ccc(C(=O)NC(=S)Nc2ccc(CN3CCOCC3)cc2)cc1Br,"inconclusive: 18.5 µM [inhibitor, partial curve, poor fit]",–
COc1ccc(CN2CCN(Cc3ccc(CO)o3)CC2CCO)cc1C (stereo unspecified),"inconclusive: 18.5 µM [inhibitor, single point]",–
Cc1ccc(C(C(=O)NCc2ccccc2)N(Cc2cccs2)C(=O)c2ccc3c(c2)OCCO3)cc1 (stereo unspecified),"inconclusive: 13.1 µM [inhibitor, single point]",–
O=C(CSc1nnnn1-c1ccccc1)Nc1nc(-c2ccccc2)ns1,"inconclusive: 18.5 µM [inhibitor, single point]",–
O=S(=O)(c1cccc(Br)c1)N1CCN(C(=S)NCC2CCCO2)CC1 (stereo unspecified),"inconclusive: 9.28 µM [inhibitor, single point]",–
Cc1cccc(NC(=O)CCC(=O)N2CCOCC2)n1,–,inactive: 30.9%
CC(=O)c1ccc(N2CCN(C(=O)CCCn3c(=O)[nH]c4ccsc4c3=O)CC2)cc1,"inconclusive: 9.28 µM [inhibitor, single point]",–
NN/C(=C\[N+](=O)[O-])Nc1ccc(Cl)cc1,–,inactive: 17.3%
CCOC(=O)N1CCC(N2C(=O)c3ccccc3C2Nc2ccc(S(=O)(=O)N3CCOCC3)cc2)CC1 (stereo unspecified),"inconclusive: 18.5 µM [inhibitor, single point]",–
COc1ccc(-n2c(=S)[nH]c3cc(C(=O)NCCCN4CCCC4=O)ccc3c2=O)c(OC)c1,–,inactive: 24%
O=C(NCc1cccnc1)Nc1cccc(C(F)(F)F)c1,active: 1.47 µM,–
CCc1ccc(-c2nc(SCC(=O)N(CC)C3CCS(=O)(=O)C3)n[nH]2)cc1 (stereo unspecified),–,inactive: 7.95%
Cc1ccccc1NC(=S)NCc1ccco1,active: 0.329 µM,–
Cc1nc2cc(Cl)c(Cl)cc2n1CCCO,"inconclusive: 11.7 µM [inhibitor, single point]",–
O=C(CSc1nc2ccccc2c(=O)[nH]1)N1CCOCC1,"inconclusive: 1.04 µM [inhibitor, partial curve, poor fit]",–
CC1=NN(C(=O)c2nn(C)cc2Br)C(O)(C(F)(F)F)C1 (stereo unspecified),"inconclusive: 18.5 µM [inhibitor, single point]",–
COc1ccc(C(C)=O)cc1CSc1nnc(Nc2c(C)cccc2C)s1,active: 9.28 µM,–

Compound,Potency,"activity change, negative = inhibition"
CCOC(=O)/C=C1\SCC(=O)N1CC(=O)NCc1cccc(Cl)c1,–,inactive: -20.5%
C/C(=N\NC(=O)CSc1nc2ccccc2o1)c1cccc(O)c1,–,inactive: 22.2%
N=C1CCC(=N)c2c1c(O)c1ccccc1c2O,"inconclusive: 2.62 µM [inhibitor, partial curve, poor fit]",–
C=CCOC(=O)C1=C(C)NC(SCC(=O)Nc2ccccc2)=C(C#N)C1c1ccco1 (stereo unspecified),"inconclusive: 0.738 µM [inhibitor, partial curve, poor fit]",–
O=C(CSc1nnc(CN2CCCCCC2=O)n1-c1ccccn1)NCC(F)(F)F,"inconclusive: 18.5 µM [inhibitor, single point]",–
COC(=O)Cn1c(CN(C)Cc2ccccc2)nc2c1c(=O)n(C)c(=O)n2C,"inconclusive: 6.57 µM [inhibitor, partial curve]",–
Cn1c(=O)n(C)c2cc(NC(=O)COc3ccc(Cl)cc3)ccc21,"inconclusive: 2.08 µM [inhibitor, single point]",–
COC(=O)N/N=C/c1cn(Cc2ccccc2F)c2ccccc12,–,inactive: 13.9%
CCc1ccccc1-n1nnnc1-c1cnccc1C(F)(F)F,–,inactive: -5.06%
COc1ccc(N=Nc2c(C)n[nH]c2C)cc1,–,inactive: 52.3%
Cc1ccc(NC(=O)CN2C(=O)N/C(=C/c3cc(C)n(-c4ccc(C(=O)O)cc4)c3C)C2=O)cc1,"inconclusive: 0.586 µM [inhibitor, partial curve, poor fit]",–
COc1ccc(S(=O)(=O)NCCN2CCNC2=O)cc1OC,–,inactive: 19.2%
CC1CCCN(C2(O)C(=O)Nc3ccc(Cl)cc32)C1 (stereo unspecified),"inconclusive: 18.5 µM [inhibitor, single point]",–
COc1cc(NC(=O)CSc2nc(=O)n(CCCN3CCOCC3)c3c2CCC3)cc(OC)c1,"inconclusive: 18.5 µM [inhibitor, single point]",–
COC(=O)c1ccc(CNC(=O)Cn2nnnc2CN(C)C(C)C)cc1,"inconclusive: 0.037 µM [inhibitor, full curve, poor fit]",–
Cc1ccc(CS(=O)(=O)c2ncc(Cl)c(C(=O)Nc3ccc(OC(F)F)cc3)n2)cc1,–,inactive: 4.57%
CC(=O)Nc1ccc(OC(=O)Oc2ccc(NC(C)=O)cc2)cc1,"inconclusive: 1.85 µM [inhibitor, full curve, poor fit]",–
Nc1nc(Cl)cc(-c2ccccc2)n1,–,inactive: -0.985%
CCOc1ccccc1NC(=O)N1CCC(c2nc3ccccc3[nH]2)CC1,"inconclusive: 0.233 µM [inhibitor, full curve, poor fit]",–
COc1ccc2c(c1)CCc1cnc(N)nc1-2,"inconclusive: 10.4 µM [inhibitor, single point]",–
Cc1ccc(S(=O)(=O)NC2c3cccc4cccc(c34)C2Sc2n[nH]c(N)n2)cc1 (stereo unspecified),"inconclusive: 18.5 µM [inhibitor, single point]",–
CCNc1nc(-c2cc(C)n(Cc3ccco3)c2C)cs1,"inconclusive: 18.5 µM [inhibitor, single point]",–
Cc1ccnn1CCC(=O)N1CCCC(CCC(=O)NCc2ccccc2F)C1 (stereo unspecified),–,inactive: -11.6%
